# Measured values from patent publication US20160090351A1, “INHIBITORS OF DEUBIQUITINATING PROTEASES” (BRANDEIS UNIVERSITY, priority 2013, published 2016).
# Some of these results come from one statement about several compounds together. At least one structure is not confirmed: it was looked up by name or label, or the drawing left a doubt.
# System: DUBs
# Test: decomposition of high molecular weight ubiquitinated proteins (HMW-Ub) in lysates of HEK 293T cells expressing HA-Ub
# Format: biochemical, human
# Conditions: HEK 293T HA-Ub lysates, 37° C.
# Description: FIG. 30 depicts data showing that diphenylcarbonates inhibit the decomposition of high molecular weight ubiquitinated proteins (HMW-Ub). Lysates were prepared from HEK 293T cells expressing HA-ubiquitin. Samples were incubated at 37° C. and reactions were quenched by the addition of reducing Laemmli buffer. HMW-Ub was assessed by SDS-PAGE and immunoblotting with anti-HA antibody. A. Representative immunoblots measuring the decomposition of HMW-Ub in lysates treated with either the DMSO vehicle, G5 (10 μM) or C4 (500 μM). B. Plot of the decomposition of HMW-Ub in lysates treated with DMSO and C4 (500 μM) (N=2; error bars denote range). C. Inhibition of HMW-Ub decomposition by diphenylcarbonates. Lysates were treated with diphenylcarbonates (50 μM). “-” denotes no treatment; D, 1% DMSO vehicle; IU1, an USP14-specific inhibitor; Bort, bortezomib, a proteasome inhibitor. D. Representative decomposition of HMW-Ub after 2 h incubation in the presence of varying concentrations of C4. See also FIG. 36. E. Quantitation of D. The values of EC50 reported in FIG. 29B are the average and S.E.M. of at least 3 independent experiments. See also FIG. 37 and FIG. 38.
# Cells overexpressing HA-ubiquitin were prepared as above. Pellets were typically stored at −80° C. until required, at which time they were thawed on ice. Cell lysis was performed in lysis buffer using a Dounce homogenizer (10 strokes, with grinding, on ice: typical yield approx. 2-5 mg protein per transfected T75 flask for HEK 293T cells; 1-3 mg protein from a T75 flask for Cos-1). Crude lysate was centrifuged at 17000 g for 10 min at 4° C., after which time the concentration of the lysate was normalized to 1 mg/mL. The lysate was aliquoted into PCR strip tubes (typical volumes 75-50 μL) and compound in DMSO was added to this to give a final concentration of DMSO of 1%. Tubes were briefly centrifuged, overlaid with Chill-out wax (50 μL) and placed in a PCR machine at 37° C. with heated lid set to 37° C. Aliquots (9 μL) were removed at the stated times and immediately quenched in (2× final concentration) reducing (dithiothreitol) loading buffer and frozen (−19° C.) till required. Western blot analysis was carried out using standard methods. Samples were resolved by SDS-PAGE, transferred to PVDF [(0.45 μm) (Towbin buffer, tank apparatus, 90 V 1 hour, then overnight at 30 V, 4° C.)] then blocked in 15% milk in TBS-T HS (100 mM Tris HCl, pH 7.6, 500 mM NaCl, 0.5% […]) for at least 2 hours at RT. Afterward, membrane was washed in TBS-T HS then probed with anti HA-HRP (1:18000) for 1.33 hours at RT. Membrane was washed 3 times in TBS-T HS (15 mins) then once in TBS (15 mins) and exposed to ECL II and visualized using blue biofilm. […] When required, membranes were stripped in 100 mM glycine pH 4, 500 mM NaCl, 1% SDS, 5 mM BME, at 55° C. for 19 mins, then analyzed.
# Lysates were prepared from HEK 293T cells expressing N-terminally HA-tagged ubiquitin (HA-Ub) to facilitate the observation of ubiquitinated proteins. In the absence of a DUB inhibitor, the HMW-Ub pool decomposed with a half-life of 34 min (FIG. 30A,B). […] Similar results were obtained in lysates prepared from Cos-1 cells expressing HA-Ub.
row,SMILES,stabilization of the HMW-Ub pool
1,Cc1ccc(OC(=O)Oc2ccc(C)cc2)cc1 [Compound C31],failed to substantially stabilize the HMW-Ub pool
2,CC(C)(C)OC(=O)NCc1ccc(OC(=O)Oc2ccccc2)cc1 [Compound C3],failed to substantially stabilize the HMW-Ub pool

# Same assay, conditions: candidates for testing in whole cells
row,SMILES,EC50 [µM]
1,"NCc1ccc(OC(=O)Oc2ccc(Br)cc2)cc1 [Compound C15, 4-(aminomethyl)phenyl(4-bromophenyl)carbonate]",≤ 50
2,NCc1ccc(OC(=O)Oc2cccc3ccccc23)cc1 [Compound C18],≤ 50
3,CC(C)(C)CNCc1ccc(OC(=O)Oc2ccc3ccccc3c2)cc1 [Compound C20],≤ 50
4,NCc1ccc(OC(=O)Oc2ccc3ccccc3c2)cc1 [Compound C17],≤ 50
5,N=C(N)NCc1ccc(OC(=O)Oc2ccc3ccccc3c2)cc1 [Compound C22],≤ 50
